Chains of the proteins cited; added tags and fusions are not shown. Lines headed by an entry give the natural chain unless they say otherwise; changes in a name come on top.
UniProt P33527: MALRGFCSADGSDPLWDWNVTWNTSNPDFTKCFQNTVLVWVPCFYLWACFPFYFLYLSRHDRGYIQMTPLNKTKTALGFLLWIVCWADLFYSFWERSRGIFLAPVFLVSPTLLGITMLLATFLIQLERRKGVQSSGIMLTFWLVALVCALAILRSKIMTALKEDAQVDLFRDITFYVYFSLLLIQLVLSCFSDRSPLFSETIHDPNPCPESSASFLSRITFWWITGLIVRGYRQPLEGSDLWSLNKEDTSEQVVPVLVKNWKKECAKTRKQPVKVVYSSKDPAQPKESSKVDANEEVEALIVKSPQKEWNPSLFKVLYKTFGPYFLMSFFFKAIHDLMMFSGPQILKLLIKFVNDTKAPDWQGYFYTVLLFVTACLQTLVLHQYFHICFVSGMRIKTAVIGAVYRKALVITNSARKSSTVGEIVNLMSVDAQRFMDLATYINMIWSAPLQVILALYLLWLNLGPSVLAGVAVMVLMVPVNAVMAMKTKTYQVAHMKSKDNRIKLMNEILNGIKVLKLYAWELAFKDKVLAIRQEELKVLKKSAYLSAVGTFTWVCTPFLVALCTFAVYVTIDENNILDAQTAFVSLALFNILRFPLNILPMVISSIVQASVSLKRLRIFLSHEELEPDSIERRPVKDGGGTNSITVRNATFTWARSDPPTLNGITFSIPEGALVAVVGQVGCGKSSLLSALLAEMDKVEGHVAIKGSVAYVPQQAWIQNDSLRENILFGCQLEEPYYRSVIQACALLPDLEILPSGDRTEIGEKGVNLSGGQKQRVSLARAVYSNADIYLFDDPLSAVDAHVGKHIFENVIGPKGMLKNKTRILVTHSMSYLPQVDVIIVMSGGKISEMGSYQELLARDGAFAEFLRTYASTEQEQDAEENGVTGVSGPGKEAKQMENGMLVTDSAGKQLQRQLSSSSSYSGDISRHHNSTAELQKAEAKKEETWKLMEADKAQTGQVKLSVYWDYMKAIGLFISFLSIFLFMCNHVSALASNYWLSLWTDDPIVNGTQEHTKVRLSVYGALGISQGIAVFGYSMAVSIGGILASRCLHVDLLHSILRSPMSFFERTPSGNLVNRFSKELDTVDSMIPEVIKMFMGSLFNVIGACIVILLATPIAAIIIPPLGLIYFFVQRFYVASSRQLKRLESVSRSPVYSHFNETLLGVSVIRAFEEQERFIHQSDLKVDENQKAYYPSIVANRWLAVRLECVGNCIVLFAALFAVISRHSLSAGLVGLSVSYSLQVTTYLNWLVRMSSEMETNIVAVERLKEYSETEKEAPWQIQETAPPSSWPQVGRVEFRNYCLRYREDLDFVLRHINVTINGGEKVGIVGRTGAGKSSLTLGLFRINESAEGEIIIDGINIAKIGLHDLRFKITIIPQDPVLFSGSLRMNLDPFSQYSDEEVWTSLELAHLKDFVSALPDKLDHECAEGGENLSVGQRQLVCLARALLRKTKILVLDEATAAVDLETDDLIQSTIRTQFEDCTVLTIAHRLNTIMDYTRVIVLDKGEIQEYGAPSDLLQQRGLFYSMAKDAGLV
UniProt P08183, whole entry: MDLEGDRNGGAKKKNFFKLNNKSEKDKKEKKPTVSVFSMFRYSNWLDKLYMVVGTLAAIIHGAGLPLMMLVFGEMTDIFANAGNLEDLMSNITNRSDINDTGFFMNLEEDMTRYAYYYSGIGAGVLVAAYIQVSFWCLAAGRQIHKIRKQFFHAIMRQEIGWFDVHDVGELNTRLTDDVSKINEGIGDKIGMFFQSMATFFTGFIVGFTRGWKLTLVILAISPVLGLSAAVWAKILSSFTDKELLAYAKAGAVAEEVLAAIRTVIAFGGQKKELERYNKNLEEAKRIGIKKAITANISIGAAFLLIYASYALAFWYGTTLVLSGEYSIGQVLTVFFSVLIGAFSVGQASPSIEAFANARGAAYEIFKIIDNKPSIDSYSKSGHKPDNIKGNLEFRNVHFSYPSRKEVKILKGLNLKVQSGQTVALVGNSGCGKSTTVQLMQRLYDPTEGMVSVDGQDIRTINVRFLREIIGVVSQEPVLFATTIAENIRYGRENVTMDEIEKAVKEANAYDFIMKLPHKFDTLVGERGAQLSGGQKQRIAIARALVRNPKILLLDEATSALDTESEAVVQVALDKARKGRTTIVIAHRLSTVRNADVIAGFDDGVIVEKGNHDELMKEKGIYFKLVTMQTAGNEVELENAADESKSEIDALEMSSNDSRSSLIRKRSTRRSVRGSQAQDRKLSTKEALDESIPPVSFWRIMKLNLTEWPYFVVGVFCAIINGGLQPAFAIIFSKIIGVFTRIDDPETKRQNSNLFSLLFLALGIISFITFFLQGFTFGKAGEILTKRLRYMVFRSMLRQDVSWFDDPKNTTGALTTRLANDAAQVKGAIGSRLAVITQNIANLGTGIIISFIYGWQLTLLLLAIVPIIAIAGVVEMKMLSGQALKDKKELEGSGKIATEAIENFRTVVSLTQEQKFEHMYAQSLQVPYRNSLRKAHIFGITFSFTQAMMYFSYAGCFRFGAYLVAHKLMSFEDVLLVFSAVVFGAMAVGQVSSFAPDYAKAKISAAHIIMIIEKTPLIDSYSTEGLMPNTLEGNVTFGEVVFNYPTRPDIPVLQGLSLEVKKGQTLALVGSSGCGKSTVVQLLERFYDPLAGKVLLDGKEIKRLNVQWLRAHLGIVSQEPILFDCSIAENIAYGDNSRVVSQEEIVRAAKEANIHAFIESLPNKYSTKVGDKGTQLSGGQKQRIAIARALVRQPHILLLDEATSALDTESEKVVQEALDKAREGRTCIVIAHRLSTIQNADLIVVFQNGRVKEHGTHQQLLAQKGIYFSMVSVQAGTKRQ
UniProt Q92887: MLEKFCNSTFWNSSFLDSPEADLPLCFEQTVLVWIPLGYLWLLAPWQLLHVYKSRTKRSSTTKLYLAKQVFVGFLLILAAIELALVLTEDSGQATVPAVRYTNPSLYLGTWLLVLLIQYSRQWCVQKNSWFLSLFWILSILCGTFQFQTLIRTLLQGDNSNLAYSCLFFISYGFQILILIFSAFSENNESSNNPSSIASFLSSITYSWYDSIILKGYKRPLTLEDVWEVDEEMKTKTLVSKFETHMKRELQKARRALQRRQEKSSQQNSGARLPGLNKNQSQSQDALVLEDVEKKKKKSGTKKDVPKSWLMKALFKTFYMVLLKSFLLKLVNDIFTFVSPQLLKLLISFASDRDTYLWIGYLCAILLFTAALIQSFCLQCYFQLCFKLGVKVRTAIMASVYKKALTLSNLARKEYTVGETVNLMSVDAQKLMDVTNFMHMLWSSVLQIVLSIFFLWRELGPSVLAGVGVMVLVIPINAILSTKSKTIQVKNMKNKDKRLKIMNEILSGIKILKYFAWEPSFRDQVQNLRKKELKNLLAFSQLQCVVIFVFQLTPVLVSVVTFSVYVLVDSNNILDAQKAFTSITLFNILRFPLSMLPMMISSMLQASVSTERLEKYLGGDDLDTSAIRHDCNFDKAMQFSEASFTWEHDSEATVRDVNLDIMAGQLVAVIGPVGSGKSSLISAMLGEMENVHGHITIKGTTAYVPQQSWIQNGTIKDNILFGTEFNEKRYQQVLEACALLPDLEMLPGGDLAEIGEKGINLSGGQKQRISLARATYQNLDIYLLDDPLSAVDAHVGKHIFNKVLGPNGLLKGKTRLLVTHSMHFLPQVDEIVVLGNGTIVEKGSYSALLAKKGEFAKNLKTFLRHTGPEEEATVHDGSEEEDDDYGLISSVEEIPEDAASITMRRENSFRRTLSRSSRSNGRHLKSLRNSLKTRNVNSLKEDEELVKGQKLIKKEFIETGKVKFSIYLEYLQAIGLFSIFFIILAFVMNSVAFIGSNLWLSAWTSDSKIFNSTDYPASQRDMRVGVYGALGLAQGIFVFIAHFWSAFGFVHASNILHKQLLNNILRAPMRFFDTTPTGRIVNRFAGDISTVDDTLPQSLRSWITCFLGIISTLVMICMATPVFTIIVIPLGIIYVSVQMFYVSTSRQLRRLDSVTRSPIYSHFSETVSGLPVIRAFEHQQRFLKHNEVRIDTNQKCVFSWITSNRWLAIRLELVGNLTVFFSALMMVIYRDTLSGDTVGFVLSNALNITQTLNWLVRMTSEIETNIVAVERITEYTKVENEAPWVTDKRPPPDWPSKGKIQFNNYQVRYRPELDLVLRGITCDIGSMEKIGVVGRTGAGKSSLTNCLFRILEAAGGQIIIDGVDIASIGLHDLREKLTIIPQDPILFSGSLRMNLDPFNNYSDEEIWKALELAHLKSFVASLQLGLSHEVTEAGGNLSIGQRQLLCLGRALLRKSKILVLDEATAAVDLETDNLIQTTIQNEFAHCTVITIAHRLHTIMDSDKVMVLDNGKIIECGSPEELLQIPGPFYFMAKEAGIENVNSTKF

According to PMC3084506 (Archives of Drug Information, 2011):

Key:
[1] = Bidirectional transport study in MDCKI cells; type: in vitro ADME, canine; conditions: dog, MDCK, avg ± SD, n = 3; for Papp A→B at 25 µM / Papp B→A at 25 µM: 25 µM ciprofloxacin
[2] = Bidirectional transport study in LLC-PK1 cells; type: in vitro ADME; conditions: pig
[3] = target: MRP1 (Homo sapiens, UniProt P33527); assay: Bidirectional transport study in L-MRP1 cells; type: in vitro ADME; conditions: LLC-PK1
[4] = target: T1, P-gp (MDR1) (Homo sapiens, UniProt P08183); assay: Bidirectional transport study in L-MDR1 cells; type: in vitro ADME; conditions: LLC-PK1
[5] = in vitro; conditions: not told
[6] = in vitro; conditions: dog, MDCK
[7] = target: MRP2 (Homo sapiens, UniProt Q92887); assay: in vitro; conditions: dog
[8] = target: T1, P-gp (MDR1); assay: in vitro; conditions: dog, MDCK-MDR1
[9] = cited from earlier work
[10] = target: P-gp (L-MDR1 cells) (Homo sapiens, UniProt P08183); conditions: rhodamine-123, a known P-gp substrate; cited from earlier work
[11] = test system: OAT3; conditions: cited from earlier work

- Papp A→B at 25 µM ([1]; Papp × 10^−7 A→B, MDCKI 4°C): 0.17 ×10⁻⁶ cm/s
- Papp A→B at 25 µM ([1]; Papp × 10^−7 A→B, MDCKI): 1.06 ×10⁻⁶ cm/s
- Papp A→B at 100 µM ([1]; Papp × 10^−7 A→B, MDCKI, 100 µM ciprofloxacin): 0.92 ×10⁻⁶ cm/s
- Papp B→A at 25 µM ([1]; Papp × 10^−7 B→A, MDCKI 4°C): 0.21 ×10⁻⁶ cm/s
- Papp B→A at 25 µM ([1]; Papp × 10^−7 B→A, MDCKI): 0.45 ×10⁻⁶ cm/s
- Papp B→A at 100 µM ([1]; Papp × 10^−7 B→A, MDCKI, 100 µM ciprofloxacin): 0.38 ×10⁻⁶ cm/s
- Papp A→B at 25 µM [2]: 1.8 ×10⁻⁶ cm/s
- Papp B→A at 25 µM [2]: 2.3 ×10⁻⁶ cm/s
- Papp A→B at 25 µM [3]: 1.96 ×10⁻⁶ cm/s
- Papp B→A at 25 µM [3]: 1.75 ×10⁻⁶ cm/s
- Papp A→B at 25 µM [4]: 1.28 ×10⁻⁶ cm/s
- Papp B→A at 25 µM [4]: 2.26 ×10⁻⁶ cm/s
- Papp A→B at 25 µM [5]: 15.4 ×10⁻⁶ cm/s
- Papp B→A at 25 µM [5]: 12.8 ×10⁻⁶ cm/s
- Papp A→B at 25 µM [6]: 1.56 ×10⁻⁶ cm/s
- Papp B→A at 25 µM [6]: 1.76 ×10⁻⁶ cm/s
- Papp A→B at 25 µM [7]: 1.13 ×10⁻⁶ cm/s
- Papp B→A at 25 µM [7]: 1.5 ×10⁻⁶ cm/s
- Papp A→B at 25 µM [8]: 0.75 ×10⁻⁶ cm/s
- Papp B→A at 25 µM [8]: 0.68 ×10⁻⁶ cm/s
Compound: O=C(O)c1cn(C2CC2)c2cc(N3CCNCC3)c(F)cc2c1=O [ciprofloxacin]
- part of elimination due to biliary excretion [9]: < 1%
- inhibition of the transport of rhodamine-123 [10]: significantly inhibit
- interaction with OAT3 [11]: substrate of OAT3
